Some of the results follow. Many values rest on one well or one pass, so single values are uncertain.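 The apoptosis fraction was the count of cleaved-PARP antibody-stained nuclei relative to all DNA-stained nuclei, imaged in 1,536-well plates. Screening doses were set so most cells survived, and baseline and induced cleaved-PARP levels vary greatly across cell lines.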
What was measured:
Test in all cases: cleaved PARP positive nuclei fraction relative to DMSO control; melanoma cells; higher = more apoptosis
Conditions in all cases: library dose: low library concentration; 72 h
[1] = system: CBRC034 (line from a melanoma biopsy)
[2] = system: COLO792
[3] = system: COLO800
[4] = system: COLO829
[5] = system: G361
[6] = system: IPC-298
[7] = system: IST-MEL1
[8] = system: LB2518-MEL
[9] = system: LOXIMVI
[10] = system: MZ2-MEL
[11] = system: MeWo
[12] = system: RPMI7951
[13] = system: RVH-421
[14] = system: SkMel28
[15] = system: SkMel30
[16] = system: SkMel5
[17] = system: UACC257
[18] = system: UACC62
[19] = system: MEL-HO
[20] = system: SkMel2

Q: Which results are given for `Cn1c(Nc2ccc(C(F)(F)F)cc2)nc2cc(Oc3ccnc(-c4ncc(C(F)(F)F)[nH]4)c3)ccc21` + CC(C)CCN1c2nc(Nc3cc(F)c(O)c(F)c3)ncc2N(C)C(=O)C1C [BID1870] (first compound 0.08 µM, partner dose 0.2 µM)?
A: cleaved PARP positive nuclei fraction [1]: 121%; cleaved PARP positive nuclei fraction [2]: 396%; cleaved PARP positive nuclei fraction [3]: 184%; cleaved PARP positive nuclei fraction [4]: 88.3%; cleaved PARP positive nuclei fraction [5]: 195%; cleaved PARP positive nuclei fraction [6]: 299%; cleaved PARP positive nuclei fraction [7]: 136%; cleaved PARP positive nuclei fraction [8]: 305%; cleaved PARP positive nuclei fraction [9]: 137%; cleaved PARP positive nuclei fraction [10]: 131%; cleaved PARP positive nuclei fraction [11]: 157%; cleaved PARP positive nuclei fraction [12]: 142%; cleaved PARP positive nuclei fraction [13]: 135%; cleaved PARP positive nuclei fraction [14]: 315%; cleaved PARP positive nuclei fraction [15]: 96.2%; cleaved PARP positive nuclei fraction [16]: 80.3%; cleaved PARP positive nuclei fraction [17]: 515%; cleaved PARP positive nuclei fraction [18]: 353%

Q: What does the source list for `C=CCn1c(=O)c2cnc(Nc3ccc(N4CCN(C)CC4)cc3)nc2n1-c1cccc(C(C)(C)O)n1` + COc1ccc(COc2ccc(Cc3cnc(N)nc3N)cc2OC)cc1 [GW2580] (first compound 0.02 µM, partner dose 1 µM)?
A: cleaved PARP positive nuclei fraction [1]: 135%; cleaved PARP positive nuclei fraction [2]: 98.2%; cleaved PARP positive nuclei fraction [3]: 26%; cleaved PARP positive nuclei fraction [4]: 102%; cleaved PARP positive nuclei fraction [5]: 202%; cleaved PARP positive nuclei fraction [6]: 79.6%; cleaved PARP positive nuclei fraction [7]: 57.3%; cleaved PARP positive nuclei fraction [8]: 182%; cleaved PARP positive nuclei fraction [9]: 35.7%; cleaved PARP positive nuclei fraction [10]: 115%; cleaved PARP positive nuclei fraction [11]: 68.2%; cleaved PARP positive nuclei fraction [12]: 45%; cleaved PARP positive nuclei fraction [13]: 52%; cleaved PARP positive nuclei fraction [14]: 129%; cleaved PARP positive nuclei fraction [15]: 53.2%; cleaved PARP positive nuclei fraction [16]: 285%; cleaved PARP positive nuclei fraction [17]: 168%; cleaved PARP positive nuclei fraction [18]: 76.6%

Q: What does the source list for `C[C@]1(c2nc3c(C(N)=O)cccc3[nH]2)CCCN1` [Veliparib] + O=C(O)C(=O)Nc1sc2c(c1C(=O)O)CCNC2 [TCS401] (first compound 1.4 µM, partner dose 1.66667 µM)?
A: cleaved PARP positive nuclei fraction [1]: 77%; cleaved PARP positive nuclei fraction [2]: 52.6%; cleaved PARP positive nuclei fraction [3]: 86.4%; cleaved PARP positive nuclei fraction [4]: 120%; cleaved PARP positive nuclei fraction [5]: 59%; cleaved PARP positive nuclei fraction [6]: 80.4%; cleaved PARP positive nuclei fraction [7]: 46.7%; cleaved PARP positive nuclei fraction [8]: 86.7%; cleaved PARP positive nuclei fraction [9]: 75.6%; cleaved PARP positive nuclei fraction [10]: 75.4%; cleaved PARP positive nuclei fraction [11]: 93.7%; cleaved PARP positive nuclei fraction [12]: 67.9%; cleaved PARP positive nuclei fraction [13]: 19.5%; cleaved PARP positive nuclei fraction [14]: 74.7%; cleaved PARP positive nuclei fraction [15]: 66.6%; cleaved PARP positive nuclei fraction [16]: 43.9%; cleaved PARP positive nuclei fraction [17]: 118%; cleaved PARP positive nuclei fraction [18]: 170%

Q: Which results are given for `CC(C)(C)c1cnc(CSc2cnc(NC(=O)C3CCNCC3)s2)o1` + COc1ccc(-c2ccc3c(N4CCOCC4)nc(N4C[C@@H](C)O[C@@H](C)C4)nc3n2)cc1CO [KU0063794] (first compound 0.01 µM, partner dose 0.02 µM)?
A: cleaved PARP positive nuclei fraction [1]: 183%; cleaved PARP positive nuclei fraction [2]: 144%; cleaved PARP positive nuclei fraction [3]: 138%; cleaved PARP positive nuclei fraction [4]: 123%; cleaved PARP positive nuclei fraction [5]: 190%; cleaved PARP positive nuclei fraction [6]: 27.9%; cleaved PARP positive nuclei fraction [7]: 62.1%; cleaved PARP positive nuclei fraction [8]: 77.6%; cleaved PARP positive nuclei fraction [9]: 89.9%; cleaved PARP positive nuclei fraction [10]: 196%; cleaved PARP positive nuclei fraction [11]: 114%; cleaved PARP positive nuclei fraction [12]: 90.2%; cleaved PARP positive nuclei fraction [13]: 78%; cleaved PARP positive nuclei fraction [14]: 73.4%; cleaved PARP positive nuclei fraction [15]: 184%; cleaved PARP positive nuclei fraction [16]: 28.1%; cleaved PARP positive nuclei fraction [17]: 48.5%; cleaved PARP positive nuclei fraction [18]: 180%

Q: What does the source list for `CC(=O)c1c(C)c2cnc(Nc3ccc(N4CCNCC4)cn3)nc2n(C2CCCC2)c1=O` [palbociclib] + OCc1c[nH]c2ccccc12 [Indole-3-carbinol] (first compound 0.04 µM, partner dose 0.8 µM)?
A: cleaved PARP positive nuclei fraction [1]: 70.2%; cleaved PARP positive nuclei fraction [2]: 48.3%; cleaved PARP positive nuclei fraction [3]: 42.3%; cleaved PARP positive nuclei fraction [4]: 156%; cleaved PARP positive nuclei fraction [5]: 120%; cleaved PARP positive nuclei fraction [6]: 141%; cleaved PARP positive nuclei fraction [7]: 160%; cleaved PARP positive nuclei fraction [8]: 100%; cleaved PARP positive nuclei fraction [9]: 120%; cleaved PARP positive nuclei fraction [19]: 157%; cleaved PARP positive nuclei fraction [10]: 62.8%; cleaved PARP positive nuclei fraction [11]: 54.7%; cleaved PARP positive nuclei fraction [12]: 146%; cleaved PARP positive nuclei fraction [13]: 82.8%; cleaved PARP positive nuclei fraction [14]: 101%; cleaved PARP positive nuclei fraction [20]: 165%; cleaved PARP positive nuclei fraction [15]: 120%; cleaved PARP positive nuclei fraction [18]: 124%

Q: What does the source list for `CC(=O)c1c(C)c2cnc(Nc3ccc(N4CCNCC4)cn3)nc2n(C2CCCC2)c1=O` [palbociclib] + Cn1c(Nc2ccc(C(F)(F)F)cc2)nc2cc(Oc3ccnc(-c4ncc(C(F)(F)F)[nH]4)c3)ccc21 [CHIR265] (first compound 0.04 µM, partner dose 0.08 µM)?
A: cleaved PARP positive nuclei fraction [1]: 47.1%; cleaved PARP positive nuclei fraction [2]: 797%; cleaved PARP positive nuclei fraction [3]: 150%; cleaved PARP positive nuclei fraction [4]: 43.7%; cleaved PARP positive nuclei fraction [5]: 190%; cleaved PARP positive nuclei fraction [6]: 163%; cleaved PARP positive nuclei fraction [7]: 106%; cleaved PARP positive nuclei fraction [8]: 442%; cleaved PARP positive nuclei fraction [9]: 119%; cleaved PARP positive nuclei fraction [19]: 120%; cleaved PARP positive nuclei fraction [10]: 32.5%; cleaved PARP positive nuclei fraction [11]: 176%; cleaved PARP positive nuclei fraction [12]: 199%; cleaved PARP positive nuclei fraction [13]: 84.4%; cleaved PARP positive nuclei fraction [14]: 62.7%; cleaved PARP positive nuclei fraction [20]: 74.9%; cleaved PARP positive nuclei fraction [15]: 202%; cleaved PARP positive nuclei fraction [18]: 618%

Q: Which results are given for `C=CCNC1=C2C[C@@H](C)C[C@H](OC)[C@H](O)[C@@H](C)/C=C(\C)[C@H](OC(N)=O)[C@@H](OC)/C=C\C=C(/C)C(=O)NC(=CC1=O)C2=O` [Tanespimycin] + C#Cc1cccc(Nc2ncnc3cc(OCCOC)c(OCCOC)cc23)c1 [erlotinib] (first compound 0.002 µM, partner dose 0.8 µM)?
A: cleaved PARP positive nuclei fraction [1]: 55.5%; cleaved PARP positive nuclei fraction [2]: 176%; cleaved PARP positive nuclei fraction [3]: 117%; cleaved PARP positive nuclei fraction [4]: 209%; cleaved PARP positive nuclei fraction [5]: 118%; cleaved PARP positive nuclei fraction [6]: 90.6%; cleaved PARP positive nuclei fraction [7]: 86.4%; cleaved PARP positive nuclei fraction [8]: 112%; cleaved PARP positive nuclei fraction [9]: 142%; cleaved PARP positive nuclei fraction [19]: 121%; cleaved PARP positive nuclei fraction [10]: 69.2%; cleaved PARP positive nuclei fraction [11]: 70.9%; cleaved PARP positive nuclei fraction [12]: 190%; cleaved PARP positive nuclei fraction [13]: 92.5%; cleaved PARP positive nuclei fraction [14]: 103%; cleaved PARP positive nuclei fraction [20]: 17.6%; cleaved PARP positive nuclei fraction [15]: 60.1%; cleaved PARP positive nuclei fraction [18]: 98.6%

Q: Which results are given for `Cn1cncc1[C@@](N)(c1ccc(Cl)cc1)c1ccc2c(c1)c(-c1cccc(Cl)c1)cc(=O)n2C` [tipifarnib] + CCc1ccc(CCOc2ccc(CC3SC(=O)NC3=O)cc2)nc1 [pioglitazone] (first compound 0.01 µM, partner dose 2 µM)?
A: cleaved PARP positive nuclei fraction [1]: 114%; cleaved PARP positive nuclei fraction [2]: 148%; cleaved PARP positive nuclei fraction [3]: 45.5%; cleaved PARP positive nuclei fraction [4]: 132%; cleaved PARP positive nuclei fraction [5]: 98.7%; cleaved PARP positive nuclei fraction [6]: 130%; cleaved PARP positive nuclei fraction [7]: 46%; cleaved PARP positive nuclei fraction [8]: 194%; cleaved PARP positive nuclei fraction [9]: 251%; cleaved PARP positive nuclei fraction [10]: 109%; cleaved PARP positive nuclei fraction [11]: 55.8%; cleaved PARP positive nuclei fraction [12]: 94.3%; cleaved PARP positive nuclei fraction [13]: 92.8%; cleaved PARP positive nuclei fraction [14]: 152%; cleaved PARP positive nuclei fraction [15]: 23.4%; cleaved PARP positive nuclei fraction [16]: 63.9%; cleaved PARP positive nuclei fraction [17]: 127%; cleaved PARP positive nuclei fraction [18]: 196%

Q: Which “cleaved PARP positive nuclei fraction” value [1] does the source give for `Cc1ccc(NC(=O)c2cccc(N(C)C)c2)cc1NC(=O)c1ccc(O)cc1` + Cc1cc([N+](=O)[O-])ccc1NS(=O)(=O)c1cc(Cl)ccc1Cl [FH535] (first compound 2 µM, partner dose 1 µM) here?
A: 295%

Q: And the “cleaved PARP positive nuclei fraction” value [2]?
A: 36.4%

Q: What about the “cleaved PARP positive nuclei fraction” value [3] of the same compound?
A: 35%

Q: And the “cleaved PARP positive nuclei fraction” value [4]?
A: 90.7%

Q: And the “cleaved PARP positive nuclei fraction” value [5]?
A: 92%

Q: And the “cleaved PARP positive nuclei fraction” value [6]?
A: 158%

Q: What about the “cleaved PARP positive nuclei fraction” value [7] of the same compound?
A: 75.4%

Q: What about the “cleaved PARP positive nuclei fraction” value [8] of the same compound?
A: 100%

Q: And the “cleaved PARP positive nuclei fraction” value [9]?
A: 45%

Q: What about the “cleaved PARP positive nuclei fraction” value [10] of the same compound?
A: 53.3%

Q: What about the “cleaved PARP positive nuclei fraction” value [11] of the same compound?
A: 28.1%

Q: And the “cleaved PARP positive nuclei fraction” value [12]?
A: 78.2%

Q: What about the “cleaved PARP positive nuclei fraction” value [13] of the same compound?
A: 97%

Q: And the “cleaved PARP positive nuclei fraction” value [14]?
A: 82.1%

Q: What about the “cleaved PARP positive nuclei fraction” value [15] of the same compound?
A: 164%

Q: And the “cleaved PARP positive nuclei fraction” value [16]?
A: 73.8%

Q: And the “cleaved PARP positive nuclei fraction” value [17]?
A: 73.6%

Q: What about the “cleaved PARP positive nuclei fraction” value [18] of the same compound?
A: 111%
